{"source": "patent US20150374784A1", "about": "“COMPOSITIONS AND METHODS FOR REDUCING GERM CELL DEATH” (Los Angeles Biomedical Research Institute at Harbor-UCLA …, priority 2014, published 2015)", "system": "DAOY human pediatric medulloblastoma cells", "test": "DAOY human medulloblastoma subcutaneous tumor in SCID mice", "format": "in vivo", "settings": "TMZ 50 mg/Kg BW/day X 5 days IP", "note": "At least one structure is not confirmed: it was looked up by name or label, or the drawing left a doubt.", "data": [{"smiles": "Cn1nnc2c(C(N)=O)ncn2c1=O", "note": "[TMZ, Temozolomide, reference compound]", "values": [{"measurement": "tumor growth (tumor weight)", "value": "markedly suppressed tumor growth"}]}]}
